According to patent publication US20110065102A1:
No constants are given. Whether binding was seen depends on the method and setting. In cells and extracts the contact can be indirect. Here binding means that the protein was enriched with, or labelled near, the bait; the list need not be complete. Where a sequence is shown, tags or fusion partners need not be part of it.

Amino acid sequences for entries named in this document (tags omitted).
UniProt P07437: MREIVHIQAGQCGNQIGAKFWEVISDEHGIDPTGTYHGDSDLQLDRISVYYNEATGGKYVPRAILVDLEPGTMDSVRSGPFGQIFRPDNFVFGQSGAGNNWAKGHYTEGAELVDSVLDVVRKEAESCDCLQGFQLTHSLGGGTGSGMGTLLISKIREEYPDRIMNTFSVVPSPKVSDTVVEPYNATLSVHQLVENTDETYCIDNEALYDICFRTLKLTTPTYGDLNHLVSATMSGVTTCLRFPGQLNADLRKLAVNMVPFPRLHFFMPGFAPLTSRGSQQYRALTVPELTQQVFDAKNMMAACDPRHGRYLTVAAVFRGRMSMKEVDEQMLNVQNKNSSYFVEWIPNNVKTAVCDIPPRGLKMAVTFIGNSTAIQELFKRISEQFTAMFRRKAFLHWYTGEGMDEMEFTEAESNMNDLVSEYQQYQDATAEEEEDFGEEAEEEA

Molecular target: β-tubulin (endogenous, co-precipitated from HCS-2/8 or HEK293 cell lysates) (UniProt P07437)
Test: pull-down with S-protein agarose from transfected cell lysates, SDS-PAGE, MALDI/TOF mass spectrometry

B1: amino-terminal S-tagged DIVA (Dual Intracellular Von Willebrand factor domain A) expressed from pTriEx4 in HCS-2/8 or HEK293 cells (protein, not shown: small tags and cut ends)
chain: MGLALKFILDHHFQEASGSRASQEVPQIAVVISSGPVEDHVHGPAKALRKAGILLYAIGVRDAVWAELREIASSPQENFTSFVPNFSGLSNLAQKLRQELCDTLAKAAPHVDHVSPACREAALADIVFLVDSSTSIGPQNFQKVKNFLYSVILGLDISSDRVRVGLAQYNDNIYPAFQLNQHPLKSMILEQIQNLPYRTGGTNTGSALEFIRTNYLTEESGSRAKDRVPQIVILVTDGESNDEVQEVADRLKEDGVVVLCGRGQCPGCPRVAKNNQ
B1 was tested, and the binding was “binds”.
